These results are taken from paper PMC11126613.

The target in this experiment is α5 integrin (mouse (endogenous in mouse lung microvascular ECs)). Briefly: affinity purification with mass spectrometry; endogenous α5 integrin immunoprecipitated (Dynabeads Protein G with anti-α5 integrin antibody, 4 °C) from mouse microvascular EC lysates: WT/Ctrl, and siNRP1, siNRP2, siNRP1/2, sip120RasGAP ECs; α5.EC KO lysates as control for non-specific binding; LFQ-DIA-MS, Spectronaut, p < 0.01 cutoff; three independent experiments.

These are yes or no findings as the source states them, for the method shown. Binding seen in cells or lysates may run through a third protein. A yes stands for co-enrichment or nearness to the bait. Other partners may have been found.

B1: Interleukin-12 receptor β1 (receptor, UniProt Q60837 20-738)
chain: QLGASGPGDGCCVEKTSFPEGASGSPLGPRNLSCYRVSKTDYECSWQYDGPEDNVSHVLWCCFVPPNHTHTGQERCRYFSSGPDRTVQFWEQDGIPVLSKVNFWVESRLGNRTMKSQKISQYLYNWTKTTPPLGHIKVSQSHRQLRMDWNVSEEAGAEVQFRRRMPTTNWTLGDCGPQVNSGSGVLGDIRGSMSESCLCPSENMAQEIQIRRRRRLSSGAPGGPWSDWSMPVCVPPEVLPQAKIKFLVEPLNQGGRRRLTMQGQSPQLAVPEGCRGRPGAQVKKHLVLVRMLSCRCQAQTSKTVPLGKKLNLSGATYDLNVLAKTRFGRSTIQKWHLPAQELTETRALNVSVGGNMTSMQWAAQAPGTTYCLEWQPWFQHRNHTHCTLIVPEEEDPAKMVTHSWSSKPTLEQEECYRITVFASKNPKNPMLWATVLSSYYFGGNASRAGTPRHVSVRNQTGDSVSVEWTASQLSTCPGVLTQYVVRCEAEDGAWESEWLVPPTKTQVTLDGLRSRVMYKVQVRADTARLPGAWSHPQRFSFEVQISRLSIIFASLGSFASVLLVGSLGYIGLNRAAWHLCPPLPTPCGSTAVEFPGSQGKQAWQWCNPEDFPEVLYPRDALVVEMPGDRGDGTESPQAAPECALDTRRPLETQRQRQVQALSEARRLGLAREDCPRGDLAHVTLPLLLGGVTQGASVLDDLWRTHKTAEPGPPTLGQEA
Consider B1, for which the binding result is reported as “binds”.

B2: RasGTPase-activating protein-like-2 (protein, UniProt E9PW37 1-1286)
chain: MELSPSSGGAAEALSWPEMFTGLESDSPLPPEDLDAVVPVSGAVAGGMLDRILLESVCQQQSWVRVFDVKGPPTHRLSCGQSPYTETTSWERKYCILTDSQLVLLNKEKEMPVEGQDQQTDSTKGRCLRRTVSVPSEGQFPEYPQEGTTKLEVPAERSPRRRSISGTSTSEKPNSMDTANTSPFKVPGFFSKRLKGSIKRTKSQSKLDRNTSFRLPSLRNADDRSRGLPKLKESRSHESLLSPCSAVECLDLGRGEPVSVKPLHSSILGQDFCFEVTYLSGSKCFSCSSASERDKWMENLRRTVQPNKDNCRRAENVLRLWIIEAKDLAPKKKYFCELCLDDTLFARTTSKTKADNIFWGEHFEFYSLPPLHSITVHIYKDVEKKKKKDKNNYVGLVNIPTASVTGRQFVEKWYPVSTPTPNKGKTGGPSIRIKSRFQTITILPMEQYKEFAEFITSNYTMLCSVLEPVISVRNKEELACALVHILQSTGRAKDFLTDLVMSEVDRCGEHDVLIFRENTIATKSIEEYLKLVGQQYLHDALGEFIKALYESDENCEVDPSKCSSSELMDHQSNLKMCCELAFCKIINSYCVFPRELKEVFASWKQQCLNRGKQDISERLISASLFLRFLCPAIMSPSLFNLMQEYPDDRTSRTLTLIAKVIQNLANFAKFGNKEEYMAFMNDFLEHEWGGMKRFLLEISNPDTISNTPGFDGYIDLGRELSVLHSLLWEVVSQLDKGENSFLQATVAKLGPLPRVLADITKSLTNPTPIQQQLRRFAEHSSSPNVSGSLSSGLQRICEDPTDSDLHKLKSPSQDNTDSYFRGKTLLLVQQASSQSMTYSEKDEKENSLPNGRSISLMDLQDTHAAQAEHASVMLDVPMRLAGSQLSITQVASIKQLRETQSTPQSAPQVRRPLHPALNQPGSLQPLSFQNPVYHLNNPVPAMPKASADSSLENLSTASSRSQSNSEDFKLSGPSNSSMEDFTKRSSHSEDFSRRHTVPDRHIPLALPRQNSTGQSQIRKLDHSGLGARAKAPPSLPHSASLRSTGSMSVASAALMAEPVQNGSRSRQQSSSSRESPVPKVRAIQRQQTQQVQSPVDSATMSPVERTAAWVLNNGQYEEDVEETEQNQDEAKHAEKYEQEITKLKERLRVSSRRLEEYERRLLVQEQQMQKLLLEYKARLEDSEERLRRQQEEKDSQMKSIISRLMAVEEELKKDHAEMQAVIDAKQKIIDAQEKRIVSLDSANTRLMSALTQVKERYSMQVRNGISPTNPTKLSITENGEFKNSSC
In the case of B2, the binding result was “binds”.

B3: Centrosomal protein-63 (protein, UniProt Q3UPP8 1-700)
chain: MEALLEGIQNRGHSGGFLTSCEAELQELMKQIDIMVAHKKSEWEGQTHALETCLDIRDRELKALRSQLDMKHKEVGILHQQIEEHEKTKQEMAMEYKEELLKLQEELSRLKRSYEKLQKKQLREFRGNTKSFREDRSEIERLTGKIEEFRQKSLDWEKQRLIYQQQVSSLEAQRKALAEQSEIIQAQLANRKQKLESVELSSQSEIQHLNSKLERAKDTICANELEIERLNIRVNDLMGTNMTILQDHRQKEEKLRESEKLLEALQEEQKELKASLQSQETFILEAKMQEKLQTTLKAVGTQQSVERPLEDCQKERKYSSPGQGVLDNVLSQLDFSHSSEELLQAEVTRLEGSLESVSATCKQLSQELMEKYEELKRMEGHNNEYRTEIKKLKEQILQADQTYSSALEGMKMEISQLTRELHQRDITIASAKCSSSDMEKQLKAEMQKAEEKAVEHKEILSQLESLKLENHRLSETVMKLELGLHEAKEISLADLQENYIEALNKLVSENQQLQKDLMSTKSELEHATNMCKKKDGEIFNPAHSRAAGFKNAELKPIHGQHRHDGIKTEQYKTGHHSPRGQTLDSIDPVARGPSPLSSHISPGSSTVSLPSNFLFEAHSLPSVLDINDVNFSDSLSDCMNDQEEFVSSGSLPTSPLGSIATRFLEEEELRSHHILERLDAHIEELKRESEKTVRQFTALV
In the case of B3, the binding result is “binds”.

B4: Kif22 (protein, UniProt Q3V300 1-660)
chain: MSLRAKTCPQRREMASATSGPGRCVSKGGLGRRPPLARVRVAVRLRPFMDGETEAKELPCVRAIDSCSLEVANWKKYQETLKYQFDAFYGEKSTQQEVYVGSVQPILRHLLEGQNASVLAYGPTGAGKTHTMLGSPEQPGVIPRALMDLLQLAREESAEGRPWDVSVAMSYLEIYQEKVLDLLDPASGDLVIREDCRGNILIPGLTQKPITSFSDFEQHFLPASRNRAVGATRLNQRSSRSHAVLLVKVDQRERLTPFRQREGKLYLIDLAGSEDNRRTGNQGIRLKESGAINTSLFVLGKVVDALNQGLPRIPYRDSKLTRLLQDSLGGSAHSILIANIAPERRFYQDTISALNFTARSKEVINRPFTNESLQPHALAPVKLSQKELLGPSEAKKAKGPEEESTGSPESTAAPASASQKLSLLQKLSNMDPAMLENLLSMERLLGSQGSQGTPLLNTPKRERMVLMKTVEEKNLEIERLKMKQKELEAKVLAQEAPDPREKENTPTILQPPASYSGTVAKPLKKAVVMPLQRIQKQRESSNQIQLLKKGPKRKLEPSPESEAVEKDEDYWEVQISPELLAHGRKKLLDLLNEGSARELRSLQRIGQKKAQLIVGWRELHGPFSEVEDLEQVEGISGKQVESFLKANLLSLAASQHSGPS
Take B4: the binding entry is given as “binds”.

B5: RasGTPase-activating protein-binding protein-2 (protein, UniProt P97379 1-482)
chain: MVMEKPSPLLVGREFVRQYYTLLNKAPEYLHRFYGRNSSYVHGGVDASGKPQEAVYGQNDIHHKVLSLNFSECHTKIRHVDAHATLSDGVVVQVMGLLSNSGQPERKFMQTFVLAPEGSVPNKFYVHNDMFRYEDEVFGDSEPELDEESEDEVEEEQEDRQPSPEPVQENANSAYYDAHPVTNGIEEPLEESSHEPEPEPESETKTEELKPQVEEKHLEELEEKSATPPPAEPASLPQEPPKAFSWASVTSKNLPPSGTVSSSGIPPHVKAPVSQPRVDAKPEVQSQPPRVREQRPRERPGFPPRGPRPGRGDMEQNDSDNRRIIRYPDSHQLFVGNLPHDIDENELKEFFMSFGNVVELRINTKGVGGKLPNFGFVVFDDSEPVQRILIAKPIMFRGEVRLNVEEKKTRAARERETRGGGDDRRDIRRNDRGPGGPRGIVGGGMMRDRDGRGPPPRGGMTQKLGSGRGTGQMEGRFTGQRR
Consider B5, for which the binding entry is on record as “binds”.

B6: Rab21 (protein, UniProt P35282 1-222)
chain: MAAAGGGAAAAAGRAYSFKVVLLGEGCVGKTSLVLRYCENKFNDKHITTLQASFLTKKLNIGGKRVNLAIWDTAGQERFHALGPIYYRDSNGAILVYDVTDEDSFQKVKNWVKELRKMLGNEICLCIVGNKIDLEKERHVSIQEAESYAESVGAKHYHTSAKQNKGIEELFLDLCKRMIETAQVDERAKGNGSSQAGAARRGVQIIDDEPQAQSSGGCCSSG
Regarding B6, the binding entry is “binds”.

B7: Kif2c (protein, UniProt Q922S8 1-721)
chain: MESLHARLFPGLSINIQRSNGLIHPANISTVNVEKSCVSVEWIEGGTTKGKEIDIDDVAAINPELLQLLPLRPKDSLPLQENVTVPKQKRKSVNSKIPALKEGLRSRSTRMSTVSEVRIPAQENEMEVELPVPTNSRKQFAIPSHPRASCSTVTELPLLMVSEEAEEQAHSTRSTSSANPGNSVRRKSCIVKEMEKMKNKREEKRAQNSELRIKRAQEYDSSFPNWEFARMIKEFRVTMECSPLTVTDPIEEHRICVCVRKRPLNKQELAKKEIDVISVPSKCLLLVHEPKLKVDLTKYLENQAFCFDFAFDETASNEVVYRFTARPLVQTIFEGGKATCFAYGQTGSGKTHTMGGDLSGKSQNASKGIYAMASRDVFLLKNQPRYRNLNLEVYVTFFEIYNGKVFDLLNKKAKLRVLEDSRQQVQVVGLQEYLVTCADDVIKMINMGSACRTSGQTFANSNSSRSHACFQILLRTKGRLHGKFSLVDLAGNERGADTSSADRQTRMEGAEINKSLLALKECIRALGQNKAHTPFRESKLTQVLRDSFIGENSRTCMIAMISPGISSCEYTLNTLRYADRVKELSPHSGPSGEQPVQMETEVMEASSNGTSLTGNEEEELSSQMSSFNEAMTQIRELEERALEELREIIQQGPNWLELSEMTDQPDYDLETFVNKAESALTQQAKQAKHFSALREVIKALRLAMQLEEQASKQINSKKRHQ
Take B7: the binding result was “binds”.

B8: Dynein light chain-3 (protein, UniProt P56387 1-116)
chain: MEGYQRPCDEVGFNADEAHNIVKECVDGVLGGNDYNENNINQWTASIVEQSITHLVKLGKAYKYIVTCAVVQRSPYGFHTASSCFWDTTSDGTCTIRWENRTMNCIVNVFAVAIVL
For the molecule B8, the binding result is given as “binds”.

B9: Ras-interacting protein-1 (protein, UniProt Q3U0S6 1-961)
chain: MLSGERKEGGSPRFGKLHLPVGLWINSPRKQLAKLGRRWPSAASVKSSSSDTGSRSSEPLPPPPPPPHVELRRVGAVKAAGGASGSRAKRISQLFRGSGAGGAGGPGTPGGAQRWASEKKLPELAAGVAPEPPLPTRAAVPPGVLKIFASGLASGANYKSVLATERSTARELVAEALERYGLTGGRGAGDSGCVDAYALCDALGRPAVGVGGGEWRAEHLRVLADAERPLLVQDLWRARPGWARRFELRGREEARRLEQEAFGAADADGTNAPSWRTQKNRSRAASGGAALASPGPGSGSGTPTGSGGKERSENLSLRRSVSELSLQGRRRRQQERRQQALSMAPGAADAQMVPTDPGDFDQLTQCLIQAPSNRPYFLLLQGYQDAQDFVVYVMTREQHVFGRGGPSSSRGGSPAPYVDTFLNAPDILPRHCTVRAGPEPPAMVRPSRGAPVTHNGCLLLREAELHPGDLLGLGEHFLFMYKDPRSGGSGPARPSWLPARPGAAPPGPGWAFSCRLCGRGLQERGEALAAYLDGREPVLRFRPREEEALLGEIVRAAASGAGDLPPLGPATLLALCVQHSARELELGHLPRLLGRLARLIKEAVWEKIKEIGDRQPENHPEGVPEVPLTPEAVSVELRPLILWMANTTELLSFVQEKVLEMEKEADQEGLSSDPQLCNDLELCDEALALLDEVIMCTFQQSVYYLTKTLYSTLPALLDSNPFTAGAELPGPGAELEAMPPGLRPTLGVFQAALELTSQCELHPDLVSQTFGYLFFFSNASLLNSLMERGQGRPFYQWSRAVQIRTNLDLVLDWLQGAGLGDIATEFFRKLSIAVNLLCVPRTSLLKASWSSLRTDYPTLTPAQLHHLLSHYQLGPGRGPPPAWDPPPAERDAVDTGDIFESFSSHPPLILPLGSSRLRLTGPVTDDALHRELRRLRRLLWDLEQQELPANHRHGPPVASTP
With B9, the binding result was “binds”.
